# Measured values as given in PMC9838815.
# Amino acid sequences for entries named in this document (tags omitted). Residues count along the entry.
# UniProt P24627, residues 20-708: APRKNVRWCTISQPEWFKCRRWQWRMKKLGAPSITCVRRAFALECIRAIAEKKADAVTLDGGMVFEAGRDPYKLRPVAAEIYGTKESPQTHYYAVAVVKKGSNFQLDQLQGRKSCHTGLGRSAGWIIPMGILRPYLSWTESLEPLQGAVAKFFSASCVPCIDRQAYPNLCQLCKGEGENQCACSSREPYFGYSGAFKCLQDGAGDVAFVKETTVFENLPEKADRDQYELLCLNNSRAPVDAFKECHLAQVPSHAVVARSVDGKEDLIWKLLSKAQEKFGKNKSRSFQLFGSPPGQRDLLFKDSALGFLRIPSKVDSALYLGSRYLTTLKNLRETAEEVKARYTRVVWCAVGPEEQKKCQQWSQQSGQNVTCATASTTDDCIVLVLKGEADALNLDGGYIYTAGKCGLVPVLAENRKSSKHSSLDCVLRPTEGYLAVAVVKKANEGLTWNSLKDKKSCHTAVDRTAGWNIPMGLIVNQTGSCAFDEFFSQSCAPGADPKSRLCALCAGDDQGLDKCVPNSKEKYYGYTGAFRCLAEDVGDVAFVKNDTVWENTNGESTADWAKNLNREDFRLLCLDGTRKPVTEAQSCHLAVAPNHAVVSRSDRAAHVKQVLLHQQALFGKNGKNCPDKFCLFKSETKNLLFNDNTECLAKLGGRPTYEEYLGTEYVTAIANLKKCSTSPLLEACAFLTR
# UniProt Q29443, residues 20-704: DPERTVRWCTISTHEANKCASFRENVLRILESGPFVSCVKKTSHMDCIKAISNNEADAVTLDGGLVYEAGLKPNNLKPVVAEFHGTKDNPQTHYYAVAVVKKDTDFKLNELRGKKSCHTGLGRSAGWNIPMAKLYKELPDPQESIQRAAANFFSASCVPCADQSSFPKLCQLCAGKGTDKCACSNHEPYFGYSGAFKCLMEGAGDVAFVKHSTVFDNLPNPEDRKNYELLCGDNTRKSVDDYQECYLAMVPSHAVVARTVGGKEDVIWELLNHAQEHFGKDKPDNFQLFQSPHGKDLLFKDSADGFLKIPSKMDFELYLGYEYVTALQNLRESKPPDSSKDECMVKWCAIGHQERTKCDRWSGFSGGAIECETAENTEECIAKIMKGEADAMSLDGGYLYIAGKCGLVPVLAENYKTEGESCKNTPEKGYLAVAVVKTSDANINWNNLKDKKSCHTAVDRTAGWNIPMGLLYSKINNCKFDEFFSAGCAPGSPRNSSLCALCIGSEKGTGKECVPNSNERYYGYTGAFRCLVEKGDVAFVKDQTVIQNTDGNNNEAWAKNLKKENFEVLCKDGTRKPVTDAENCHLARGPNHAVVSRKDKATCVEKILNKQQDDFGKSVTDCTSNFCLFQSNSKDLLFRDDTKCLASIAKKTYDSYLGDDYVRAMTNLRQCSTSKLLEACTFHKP
# UniProt P02769, residues 25-607: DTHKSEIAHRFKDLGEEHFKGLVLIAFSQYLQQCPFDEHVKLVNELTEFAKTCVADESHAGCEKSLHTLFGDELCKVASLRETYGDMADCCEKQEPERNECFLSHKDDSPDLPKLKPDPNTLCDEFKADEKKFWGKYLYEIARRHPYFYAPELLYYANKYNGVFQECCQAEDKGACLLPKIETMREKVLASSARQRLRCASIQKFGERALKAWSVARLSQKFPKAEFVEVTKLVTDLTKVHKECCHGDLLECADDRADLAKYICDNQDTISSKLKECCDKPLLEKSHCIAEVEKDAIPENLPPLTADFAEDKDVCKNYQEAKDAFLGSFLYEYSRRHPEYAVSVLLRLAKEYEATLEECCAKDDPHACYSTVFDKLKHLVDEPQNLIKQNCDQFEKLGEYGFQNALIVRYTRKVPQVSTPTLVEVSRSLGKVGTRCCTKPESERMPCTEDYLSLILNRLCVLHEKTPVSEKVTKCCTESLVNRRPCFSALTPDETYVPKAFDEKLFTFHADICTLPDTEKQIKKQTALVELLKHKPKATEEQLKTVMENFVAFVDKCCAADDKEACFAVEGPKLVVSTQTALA
# UniProt P02789, residues 20-705: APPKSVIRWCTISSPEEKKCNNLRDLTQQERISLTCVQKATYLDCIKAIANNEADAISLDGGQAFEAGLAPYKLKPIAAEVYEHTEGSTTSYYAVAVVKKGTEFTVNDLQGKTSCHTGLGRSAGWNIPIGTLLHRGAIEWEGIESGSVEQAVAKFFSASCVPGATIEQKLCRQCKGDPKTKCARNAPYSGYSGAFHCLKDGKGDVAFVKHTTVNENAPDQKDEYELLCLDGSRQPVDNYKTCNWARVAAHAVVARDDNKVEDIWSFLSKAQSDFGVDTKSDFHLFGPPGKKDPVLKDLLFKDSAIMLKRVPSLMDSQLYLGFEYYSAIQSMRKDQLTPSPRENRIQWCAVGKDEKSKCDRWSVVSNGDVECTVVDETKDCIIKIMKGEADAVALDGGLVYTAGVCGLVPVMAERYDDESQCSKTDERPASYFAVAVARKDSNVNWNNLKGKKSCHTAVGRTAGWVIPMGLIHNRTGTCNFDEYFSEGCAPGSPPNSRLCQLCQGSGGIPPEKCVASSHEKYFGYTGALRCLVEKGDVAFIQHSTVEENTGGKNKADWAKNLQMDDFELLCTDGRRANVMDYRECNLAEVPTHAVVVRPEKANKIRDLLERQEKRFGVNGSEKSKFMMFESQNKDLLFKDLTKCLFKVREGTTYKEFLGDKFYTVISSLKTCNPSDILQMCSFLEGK
# UniProt P11974: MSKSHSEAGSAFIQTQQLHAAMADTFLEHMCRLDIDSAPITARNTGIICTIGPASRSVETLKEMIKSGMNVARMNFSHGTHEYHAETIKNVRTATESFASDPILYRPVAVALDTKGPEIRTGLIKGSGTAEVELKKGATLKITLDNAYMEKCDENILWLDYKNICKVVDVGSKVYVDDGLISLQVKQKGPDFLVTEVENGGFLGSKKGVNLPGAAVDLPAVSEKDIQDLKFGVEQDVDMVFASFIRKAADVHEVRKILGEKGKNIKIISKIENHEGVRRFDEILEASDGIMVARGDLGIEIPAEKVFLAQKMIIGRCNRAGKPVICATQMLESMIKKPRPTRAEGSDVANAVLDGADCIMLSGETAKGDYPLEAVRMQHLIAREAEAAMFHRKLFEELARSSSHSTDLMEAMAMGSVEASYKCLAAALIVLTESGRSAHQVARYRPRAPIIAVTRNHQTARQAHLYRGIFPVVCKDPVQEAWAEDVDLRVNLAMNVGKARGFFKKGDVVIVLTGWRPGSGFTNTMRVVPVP
# UniProt P00563: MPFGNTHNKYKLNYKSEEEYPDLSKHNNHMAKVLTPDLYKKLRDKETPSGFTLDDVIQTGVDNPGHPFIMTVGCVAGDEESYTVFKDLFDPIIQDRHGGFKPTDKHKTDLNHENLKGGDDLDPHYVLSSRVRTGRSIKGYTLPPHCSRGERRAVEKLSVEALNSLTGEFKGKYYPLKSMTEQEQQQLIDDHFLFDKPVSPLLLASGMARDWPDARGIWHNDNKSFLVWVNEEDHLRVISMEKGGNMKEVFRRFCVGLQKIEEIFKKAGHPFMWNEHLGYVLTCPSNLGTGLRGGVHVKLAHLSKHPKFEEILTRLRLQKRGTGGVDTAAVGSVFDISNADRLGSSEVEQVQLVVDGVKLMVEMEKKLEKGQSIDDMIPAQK
# These are yes or no findings as the source states them, for the method shown.
# T1: rabbit fructose-bisphosphate aldolase A (rabbit) (UniProt P00883)
# T1 sequence: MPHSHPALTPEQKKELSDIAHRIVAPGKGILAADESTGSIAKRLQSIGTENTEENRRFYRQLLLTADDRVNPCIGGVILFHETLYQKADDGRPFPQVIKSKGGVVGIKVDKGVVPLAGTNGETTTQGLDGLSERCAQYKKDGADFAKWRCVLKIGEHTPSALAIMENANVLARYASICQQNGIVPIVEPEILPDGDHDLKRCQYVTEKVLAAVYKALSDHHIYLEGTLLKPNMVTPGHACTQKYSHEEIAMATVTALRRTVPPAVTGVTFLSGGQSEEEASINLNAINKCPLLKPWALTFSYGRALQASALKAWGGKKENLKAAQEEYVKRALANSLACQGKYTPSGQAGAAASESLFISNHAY
# Legend:
# Assay in all cases: condition: 0.25 mg/mL per protein, corresponding to approximately 3–6 μM; cross-linking; mixture of eight model proteins in solution, 2 mg/mL total (0.25 mg/mL per protein), citrate-phosphate buffer, eight pH conditions (pH 4.0-7.5), 1 mM DSS (d0/d12) for 30 min at 37 °C; Lys-C/trypsin digest, LC-MS/MS, xQuest (score ≥ 25); both purified
# [1] = target: bovine lactotransferrin (bovine) (UniProt P24627)
# [2] = target: bovine serotransferrin (bovine) (UniProt Q29443)
# [3] = target: bovine serum albumin (bovine) (UniProt P02769)
# [4] = target: chicken ovotransferrin (chicken) (UniProt P02789)
# [5] = target: rabbit pyruvate kinase (rabbit), P11974; conditions: remark: other sources report otherwise
# [6] = target: rabbit creatine kinase M-type (rabbit) (UniProt P00563)
# [7] = target: T1, rabbit fructose-bisphosphate aldolase A (rabbit)
# [8] = target: rabbit pyruvate kinase (rabbit) (UniProt P11974)
binding [1],binding [2],binding [3],binding [4],binding [5],binding [6],binding [7],binding [8],Binder
no binding,no binding,no binding,no binding,,,,,"rabbit fructose-bisphosphate aldolase A (enzyme, UniProt P00883 1-364) MPHSHPALTPEQKKELSDIAHRIVAPGKGILAADESTGSIAKRLQSIGTENTEENRRFYRQLLLTADDRVNPCIGGVILFHETLYQKADDGRPFPQVIKSKGGVVGIKVDKGVVPLAGTNGETTTQGLDGLSERCAQYKKDGADFAKWRCVLKIGEHTPSALAIMENANVLARYASICQQNGIVPIVEPEILPDGDHDLKRCQYVTEKVLAAVYKALSDHHIYLEGTLLKPNMVTPGHACTQKYSHEEIAMATVTALRRTVPPAVTGVTFLSGGQSEEEASINLNAINKCPLLKPWALTFSYGRALQASALKAWGGKKENLKAAQEEYVKRALANSLACQGKYTPSGQAGAAASESLFISNHAY"
,,,,no binding,,,,"rabbit fructose-bisphosphate aldolase A, P00883 1-364 (enzyme) MPHSHPALTPEQKKELSDIAHRIVAPGKGILAADESTGSIAKRLQSIGTENTEENRRFYRQLLLTADDRVNPCIGGVILFHETLYQKADDGRPFPQVIKSKGGVVGIKVDKGVVPLAGTNGETTTQGLDGLSERCAQYKKDGADFAKWRCVLKIGEHTPSALAIMENANVLARYASICQQNGIVPIVEPEILPDGDHDLKRCQYVTEKVLAAVYKALSDHHIYLEGTLLKPNMVTPGHACTQKYSHEEIAMATVTALRRTVPPAVTGVTFLSGGQSEEEASINLNAINKCPLLKPWALTFSYGRALQASALKAWGGKKENLKAAQEEYVKRALANSLACQGKYTPSGQAGAAASESLFISNHAY"
no binding,no binding,no binding,no binding,,no binding,no binding,no binding,"bovine catalase (enzyme, UniProt P00432 1-527) MADNRDPASDQMKHWKEQRAAQKPDVLTTGGGNPVGDKLNSLTVGPRGPLLVQDVVFTDEMAHFDRERIPERVVHAKGAGAFGYFEVTHDITRYSKAKVFEHIGKRTPIAVRFSTVAGESGSADTVRDPRGFAVKFYTEDGNWDLVGNNTPIFFIRDALLFPSFIHSQKRNPQTHLKDPDMVWDFWSLRPESLHQVSFLFSDRGIPDGHRHMNGYGSHTFKLVNANGEAVYCKFHYKTDQGIKNLSVEDAARLAHEDPDYGLRDLFNAIATGNYPSWTLYIQVMTFSEAEIFPFNPFDLTKVWPHGDYPLIPVGKLVLNRNPVNYFAEVEQLAFDPSNMPPGIEPSPDKMLQGRLFAYPDTHRHRLGPNYLQIPVNCPYRARVANYQRDGPMCMMDNQGGAPNYYPNSFSAPEHQPSALEHRTHFSGDVQRFNSANDDNVTQVRTFYLKVLNEEQRKRLCENIAGHLKDAQLFIQKKAVKNFSDVHPEYGSRIQALLDKYNEEKPKNAVHTYVQHGSHLSAREKANL"
